These are yes or no findings as the source states them, for the method shown. In cells and extracts the contact can be indirect. Some results given as binding are weak or reduced against the parent protein; the word gives no strength.
How the values were obtained:
[1] = biological target: PARP4 (human (endogenous in iSAEC-K, A549 and patient-derived lung cell lines)) (UniProt Q9UKK3); assay: co-IP; immunoprecipitation of endogenous PARP4 from the cytoplasmic and nuclear fractions of iSAEC-K cells; immunoblot
[2] = biological target: T1, PARP4-Fragment 1 (amino acid residues 1-622) (UniProt Q9UKK3); assay: co-IP; FLAG immunoprecipitation of exogenously introduced FLAG-tagged PARP4 fragments or domain-deletion mutants from HEK293T cells; endogenous hnRNPM detected
T1 sequence: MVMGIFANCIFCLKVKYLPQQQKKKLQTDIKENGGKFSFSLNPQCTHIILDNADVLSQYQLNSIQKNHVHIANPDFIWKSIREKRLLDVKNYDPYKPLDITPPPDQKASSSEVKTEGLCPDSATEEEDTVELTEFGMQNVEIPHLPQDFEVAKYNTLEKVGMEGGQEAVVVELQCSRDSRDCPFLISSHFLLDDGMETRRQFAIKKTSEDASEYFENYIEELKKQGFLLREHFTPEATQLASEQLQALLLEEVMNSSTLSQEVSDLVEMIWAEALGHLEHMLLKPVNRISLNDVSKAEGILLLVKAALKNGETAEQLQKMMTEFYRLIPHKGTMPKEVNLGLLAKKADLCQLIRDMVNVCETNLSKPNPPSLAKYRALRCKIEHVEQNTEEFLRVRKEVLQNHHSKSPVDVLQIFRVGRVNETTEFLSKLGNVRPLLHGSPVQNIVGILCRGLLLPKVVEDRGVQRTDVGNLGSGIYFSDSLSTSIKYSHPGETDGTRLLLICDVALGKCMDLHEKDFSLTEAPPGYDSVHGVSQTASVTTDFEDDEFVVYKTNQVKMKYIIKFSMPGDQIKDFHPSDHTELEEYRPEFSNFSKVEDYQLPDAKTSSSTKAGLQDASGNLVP

[3] = biological target: T2, PARP4-Fragment 2 (amino acid residues 623-1114) (UniProt Q9UKK3); assay: as above
T2 sequence: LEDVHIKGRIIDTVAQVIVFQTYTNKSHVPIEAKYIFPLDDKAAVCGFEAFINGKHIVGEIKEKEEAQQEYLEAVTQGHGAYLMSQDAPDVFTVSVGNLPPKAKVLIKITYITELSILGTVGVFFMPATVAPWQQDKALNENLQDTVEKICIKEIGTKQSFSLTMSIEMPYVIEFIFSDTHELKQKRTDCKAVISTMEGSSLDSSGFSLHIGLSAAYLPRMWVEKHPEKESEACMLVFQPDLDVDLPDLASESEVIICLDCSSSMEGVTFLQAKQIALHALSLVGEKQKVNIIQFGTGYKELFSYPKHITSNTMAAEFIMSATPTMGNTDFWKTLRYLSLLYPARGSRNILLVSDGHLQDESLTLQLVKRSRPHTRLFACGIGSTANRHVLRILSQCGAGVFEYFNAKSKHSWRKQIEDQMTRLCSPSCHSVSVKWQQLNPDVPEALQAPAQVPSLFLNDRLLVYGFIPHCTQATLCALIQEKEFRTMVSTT

[4] = biological target: T3, PARP4-Fragment 3 (amino acid residues 1115-1724) (UniProt Q9UKK3); assay: as above
T3 sequence: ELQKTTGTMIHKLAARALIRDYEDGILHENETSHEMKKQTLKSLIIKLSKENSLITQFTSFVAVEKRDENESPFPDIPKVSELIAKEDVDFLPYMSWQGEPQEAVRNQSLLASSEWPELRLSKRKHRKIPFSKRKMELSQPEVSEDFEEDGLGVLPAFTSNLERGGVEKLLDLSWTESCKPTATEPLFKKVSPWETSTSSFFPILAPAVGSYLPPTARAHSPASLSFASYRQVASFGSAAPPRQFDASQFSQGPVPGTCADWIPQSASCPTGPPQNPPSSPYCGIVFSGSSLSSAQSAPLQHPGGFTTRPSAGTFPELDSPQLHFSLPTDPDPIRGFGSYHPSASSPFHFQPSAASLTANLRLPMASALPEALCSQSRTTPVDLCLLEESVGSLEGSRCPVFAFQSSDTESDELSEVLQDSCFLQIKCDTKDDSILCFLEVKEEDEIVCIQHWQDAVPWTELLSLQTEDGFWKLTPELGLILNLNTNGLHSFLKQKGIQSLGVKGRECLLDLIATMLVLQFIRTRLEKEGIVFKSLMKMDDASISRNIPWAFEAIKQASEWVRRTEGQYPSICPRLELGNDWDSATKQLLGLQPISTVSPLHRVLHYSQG

[5] = biological target: PARP4 (human (endogenous in iSAEC-K, A549 and patient-derived lung cell lines)) (UniProt Q9UKK3); assay: co-IP; endogenous proteins in whole-cell lysates (iSAEC-K; also A549, A611, A563, A653); lysis in 10 mM Tris-HCl pH 7.5, 150 mM NaCl, 0.5% NP-40, 0.25% sodium deoxycholate, 0.5 mM EDTA with 2 mM MgCl2 and 50 units/mL benzonase; 1 mg protein, 4 ug antibody overnight, Protein A/G Dynabeads …

B1: heterogeneous ribonucleoprotein M (hnRNPM) (protein, UniProt P52272 1-730)
chain: MAAGVEAAAEVAATEIKMEEESGAPGVPSGNGAPGPKGEGERPAQNEKRKEKNIKRGGNRFEPYANPTKRYRAFITNIPFDVKWQSLKDLVKEKVGEVTYVELLMDAEGKSRGCAVVEFKMEESMKKAAEVLNKHSLSGRPLKVKEDPDGEHARRAMQKVMATTGGMGMGPGGPGMITIPPSILNNPNIPNEIIHALQAGRLGSTVFVANLDYKVGWKKLKEVFSMAGVVVRADILEDKDGKSRGIGTVTFEQSIEAVQAISMFNGQLLFDRPMHVKMDERALPKGDFFPPERPQQLPHGLGGIGMGLGPGGQPIDANHLNKGIGMGNIGPAGMGMEGIGFGINKMGGMEGPFGGGMENMGRFGSGMNMGRINEILSNALKRGEIIAKQGGGGGGGSVPGIERMGPGIDRLGGAGMERMGAGLGHGMDRVGSEIERMGLVMDRMGSVERMGSGIERMGPLGLDHMASSIERMGQTMERIGSGVERMGAGMGFGLERMAAPIDRVGQTIERMGSGVERMGPAIERMGLSMERMVPAGMGAGLERMGPVMDRMATGLERMGANNLERMGLERMGANSLERMGLERMGANSLERMGPAMGPALGAGIERMGLAMGGGGGASFDRAIEMERGNFGGSFAGSFGGAGGHAPGVARKACQIFVRNLPFDFTWKMLKDKFNECGHVLYADIKMENGKSKGCGVVKFESPEVAERACRMMNGMKLSGREIDVRIDRNA
For B1, the binding [1] was “binds”, the binding [2] was “no binding” and the binding [3] was “binds”. For the same binder, the binding [4] was “binds” and the binding [5] was “binds”.
